Results from US20170173060A1, “ACTIVATION OF THE ENDOGENOUS ILEAL BRAKE HORMONE PATHWAY FOR ORGAN REGENERATION AND RELATED COMPOSITIONS, METHODS OF TREATMENT, DIAGNOSTICS, AND REGULATORY SYSTEMS” (VOLANT HOLDINGS GMBH, priority 2014, published 2017).

Test system: patients with initial abnormal values
Experiment: Rate of change of weight, HBA1c, HDL, TG and AST in RYGB, Brake, combination and control patients (FIGS. 18-22)
Assay type: in vivo, human
Settings: FIGS. 18-21 control patients
Description: FIG. 18. Weight change in patients with RYGB in comparison with treatment with Brake alone, Brake with Metformin and Brake with Atorvastatin. Also shown are control patients given Atorvastatin alone and Metformin alone. […] Additional medications in the control patients are shown at the table on the bottom
FIG. 19. HBA1c change in patients with RYGB in comparison with treatment with Brake alone, Brake with Metformin and Brake with Atorvastatin. Also shown are control patients given Atorvastatin alone and Metformin alone. […] Additional medications in the control patients are shown at the table on the bottom
FIG. 20. HDL change in patients with RYGB in comparison with treatment with Brake alone, Brake with Atorvastatin. Also shown are control patients given Atorvastatin or other statins alone. […] Additional medications in the control patients are shown at the table on the bottom, note that some were taking fish oil products.
FIG. 21. Triglyceride (TG) changes in patients with RYGB in comparison with treatment with Brake alone, Brake with Atorvastatin. Also shown are control patients given Atorvastatin (usually 10 mg doses) or other statins. […] Additional medications in the control patients are shown at the table on the bottom.
FIG. 22. […]

For `CC(C)c1c(C(=O)Nc2ccccc2)c(-c2ccccc2)c(-c2ccc(F)cc2)n1CC[C@@H](O)C[C@@H](O)CC(=O)O` [atorvastatin], the “effect on metabolic syndrome biomarkers when given alone” value was “little effect”.
